Source: PubChem BioAssay AID1688 (National Center for Advancing Translational Sciences (NCATS), 2009)
Hit rate of the full screen: of about 220,000 compounds, about 2,400 (1.1%) were called active. The inconclusive results got no clear call from the source; some entries with a clear call stand among them for comparison. Calls come from the whole dose curve; as a rule, active = well fitted inhibition curve with a large enough effect; inconclusive = small, poorly fitted or top-dose-only effect, or effect the other way; inactive = no such curve, though single readings can be large or run the other way. Potencies beside an inconclusive call are fits to weak or partial responses and may not hold up.

assay: qHTS Multiplex Assay to Identify Dual Action Probes in a Cell Model of Huntington: Aggregate Formation (GFP); settings: PC12 HttQ103-GFP aggregates, Acumen cytometry, 40 h; activity change, negative = inhibition: at 46.1 µM (top of the series) unless noted; note: nearly all actives have a fitted effect of over 60% in size
In short: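 Huntingtin Q103 exon 1–GFP aggregates in induced PC12 cells (100 nM tebufenozide) were quantified by cytometry from lysates, with compounds dosed in titration.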
% is set by controls: 0 for no effect and ±100 for the full control effect; potency is the fitted concentration of half-maximal effect.

Structure (SMILES)	Potency	activity change, negative = inhibition
Fc1ccc(NCc2nnc(SCc3nnc(-c4ccccc4)o3)n2Cc2ccccc2)cc1	active: 12.6 µM	
Cc1ncoc1C(=O)Nc1ccc(Oc2ccccc2)cc1	inactive	
COc1ccc(CSC2=CS(=O)(=O)c3ccccc3N2)cc1	inconclusive: 0.447 µM [activator, partial curve]	
COc1ccc(C(CCN2CCCC(C)C2)c2c(OC)cc(OC)c3c(-c4ccccc4)cc(=O)oc23)cc1 (configuration not stated)		inactive: 14% [at 9.22 µM]
O=C(C1CCN(Cc2nc(Cc3cccc(F)c3)no2)CC1)N1CCOCC1	inconclusive: 1 µM [inhibitor, single point]	
CNC(=O)CSCCn1c(SCC(=O)NC)nc2ccccc2c1=O	inconclusive: 3.16 µM [activator, single point]	
CCOc1cc(S(=O)(=O)N2CCCCC2)ccc1Cl	inactive	
CCn1c(-c2ccc(N(C)C)cc2)nc2ccccc21	active: 10 µM	
O=C(c1cccnc1)N1CCN(Cc2cccc(Br)c2)CC1	inconclusive: 2.82 µM [inhibitor, single point]	
CC(=O)N(O)CCCCCNC(=O)CCC(=O)N(O)CCCCCNC(=O)CCC(=O)N(O)CCCCCN	inactive	
c1ccc2c(-c3nnc4n3CCCCC4)c[nH]c2c1	inconclusive: 12.6 µM [inhibitor, single point]	
COc1cccc(-c2nnc(SC(C(=O)c3c[nH]c4ccccc34)c3ccccc3)n2C)c1 (configuration not stated)	inconclusive: 35.5 µM [inhibitor, single point]	
Cc1sc(NC(=O)c2ccco2)nc1-c1ccc2c(c1)CC(C)N2C(=O)C1CC1 (configuration not stated)	active: 15.8 µM	
O=S(=O)(c1ccc2c(c1)OCCO2)N1CCN(c2cccc(Cl)c2)CC1	inconclusive: 0.562 µM [inhibitor, full curve, poor fit]	
O=C(Nc1ccc(N2CCN(C(=O)c3ccc(Cl)cc3)CC2)cc1)c1ccc2c(c1)OCCO2	inconclusive: 3.16 µM [inhibitor, full curve]	
COc1ccc(CC2(CO)CCN(S(=O)(=O)c3c(C)nn(C)c3Cl)CC2)cc1		inactive: 22.2% [at 9.22 µM]
CC(=O)c1ccc(N2C(=O)[C@@H]3C(C(=O)CCN4C(=O)c5ccccc5C4=O)=NN[C@@H]3C2=O)cc1	inactive	
COc1cc(OC)c2ccc(=O)oc2c1C(CCN1CCCCC1)c1ccc(N(C)C)cc1 (configuration not stated)	inconclusive: 0.562 µM [inhibitor, partial curve, poor fit]	
CCN(C(=O)CCC(=O)N(CC)c1ccccc1)c1ccccc1	inactive	
Cc1ccccc1/C(N)=N/OC(=O)N1c2ccccc2Sc2ccccc21	inactive	
COc1ccccc1CNC(=O)c1ccc(-c2ccccc2Cl)o1	inconclusive: 3.98 µM [inhibitor, single point]	
Cc1ccc(S(=O)(=O)Oc2ccccc2/C=N/NC(N)=S)cc1	inconclusive: 2.24 µM [activator, single point]	
O=C(Nc1cccn(Cc2c(Cl)cccc2Cl)c1=O)c1c(Cl)cccc1Cl	inconclusive: 10 µM [inhibitor, partial curve]	
CC1(c2ccccc2)NC(=O)N(CC(=O)N2CCOCC2)C1=O (configuration not stated)	inconclusive: 2.82 µM [activator, partial curve]	

Structure (SMILES)	Potency	activity change, negative = inhibition
Cc1[nH]c2ccccc2c1SCC(=O)N1CCCCC1	inactive	
O=C(NC1(N2CCOCC2)CC1)c1ccc(Cl)cc1		inactive: -5.05% [at 9.22 µM]
O=C(CNC(=S)NC(=O)c1ccc(Br)o1)c1ccccc1	inactive	
O=C(NCCN1CCc2ccccc2C1)C1CC(=O)N(C2CCCC2)C1 (configuration not stated)	inconclusive: 0.891 µM [inhibitor, single point]	
CCN(CC)Cc1csc(C(N)=O)c1	inconclusive: 2.24 µM [inhibitor, single point]	
COCCCn1c(SCC(=O)N2CC(=O)Nc3ccccc32)nnc1-c1ccoc1C	inactive	
CC12CCC(C(=O)Nc3ccc(SC(F)F)cc3)(CC1=O)C2(C)C (configuration not stated)	inactive	
COc1ccc(-c2ccc(SCC(=O)c3ccccc3)nn2)cc1OC	inactive	
COc1ccccc1N/C(N)=N/c1nc(CSc2ccc(C)cc2)cc(=O)[nH]1	inconclusive: 3.16 µM [inhibitor, partial curve]	
O=C(CCNC(=O)Cn1ccc2ccccc2c1=O)NCc1ccc(F)cc1Cl	inactive	
O=[N+]([O-])c1ccc(N=Nc2ccc(O)cc2O)cc1	active: 1.26 µM	
CC/C(=N\NC(=O)c1ccc(-c2ccccc2)cc1)C12CC3CC(CC(C3)C1)C2	inactive	
CCN(CC)CCNC(=O)c1ccc2c(=O)n(CCc3ccccc3)c(=O)[nH]c2c1	inconclusive: 10 µM [inhibitor, partial curve]	
O=[N+]([O-])c1ccc(O)c(Nc2ncnc3ccc(Br)cc23)c1	active: 31.6 µM	
Cc1cc(N2CCN(C)CC2)nc2ccc(NC(=S)NCCCN3CCc4ccccc4C3)cc12	inconclusive: 35.5 µM [inhibitor, single point]	
O=S(=O)(Nc1cnc2ccccc2c1)N1CCCCCC1	inconclusive: 12.6 µM [inhibitor, partial curve]	
CCCCc1c(C)c2cc(C)ccc2[nH]c1=O	inconclusive: 11.2 µM [inhibitor, partial curve]	
Cc1cc(C)nc(NC(=O)c2cc([N+](=O)[O-])cc([N+](=O)[O-])c2)n1	inactive	
Nc1c(S(=O)(=O)c2cccs2)c2nc3ccccc3nc2n1CCc1ccccc1	inconclusive: 15.8 µM [inhibitor, single point]	
Cc1ccc(C2=NC(=O)/C(=C/c3cc(O)c(O)c(Br)c3)S2)cc1	inconclusive: 35.5 µM [inhibitor, single point]	
Cc1cccc(NC(=O)Cn2cc(C(=O)c3ccco3)c3ccccc32)c1	inconclusive: 22.4 µM [inhibitor, single point]	
C/C(=N/NC(=O)C(O)(c1ccccc1)c1ccccc1)c1ccc([N+](=O)[O-])o1	inconclusive: 35.5 µM [inhibitor, single point]	
CC(=O)c1cccc(NC(=O)COc2cc3oc(=O)c(CC(C)O)c(C)c3cc2Cl)c1 (configuration not stated)	active: 3.55 µM	
CS(=O)(=O)N(CC(N)=O)Cc1ccc(Cl)cc1	inconclusive: 5.62 µM [inhibitor, partial curve]	

Structure (SMILES)	Potency	activity change, negative = inhibition
Cc1cccc(Cn2nc(-n3cccc3)c3c(C)cc(C)nc32)c1	inactive	
CCCCS(=O)(=O)/C=C\C=C/S(=O)(=O)CCCC	inconclusive: 5.62 µM [inhibitor, single point]	
Cn1c(=O)c2c(nc(CN3CCN(c4ccccc4)CC3)n2CCN2CCOCC2)n(C)c1=O	inconclusive: 6.31 µM [activator, single point]	
N#CCCN(C(=O)Nc1ccc(Cl)c(Cl)c1)c1ccccc1	inactive	
Cc1ccc(C)c(OCC(=O)N/N=C/c2c(C)nn(-c3ccccc3)c2Cl)c1C	inconclusive: 11.2 µM [activator, partial curve]	
Cc1ccccc1S(=O)(=O)NC1OC(=O)C(Cl)=C1Cl (configuration not stated)	inconclusive: 35.5 µM [activator, single point]	
COc1ccc(CCNCC(O)Cn2c3ccccc3c3ccccc32)cc1OC (configuration not stated)	inconclusive: 15.8 µM [inhibitor, single point]	
COc1ccc(-n2nc(C(=O)NCC(=O)NCC3CCCO3)c3ccccc3c2=O)cc1 (configuration not stated)	inconclusive: 5.62 µM [inhibitor, single point]	
c1ccc(CC2CCN(C(c3cccs3)c3nnnn3C3CCCC3)CC2)cc1 (configuration not stated)	inconclusive: 35.5 µM [inhibitor, partial curve, poor fit]	
CCOC(=O)c1ccc(CNC(=O)CCC(=O)O)cc1	inconclusive: 2.24 µM [activator, partial curve, poor fit]	
CCCN(CCC)C(=S)NC(=O)c1ccc(-c2ccccc2)cc1	inconclusive: 15.8 µM [inhibitor, single point]	
O=C(CCCCn1c(=O)[nH]c2ccccc2c1=O)NCCC1=CCCCC1	inconclusive: 0.562 µM [inhibitor, partial curve, poor fit]	
Cc1cccc(NC(=O)CCc2ccccc2)c1	inactive	
Cc1[nH]n(-c2ccc(Cl)cc2)c(=O)c1/C=N/n1c(C)nc2ccccc2c1=O	inconclusive: 35.5 µM [inhibitor, partial curve]	
COc1ccc(COc2ccccc2C(N)=O)cc1F	active: 15.8 µM	
Fc1cccc(-c2nnn3c2nc(Cl)c2ccccc23)c1	inconclusive: 35.5 µM [inhibitor, single point]	
COc1cccc(-n2nnc3c(=O)n(Cc4c(F)cccc4Cl)cnc32)c1	active: 3.16 µM	
O=C(COC(=O)CCCOc1ccc(Cl)cc1Cl)NCc1ccccc1	inactive	
Cc1nn(Cc2ccccc2)c2c1C(c1ccc(Cl)cc1)C(C#N)=C(N)O2 (configuration not stated)	inactive	
Oc1ccc(C2=NNC(=NCc3ccc4c(c3)OCO4)SC2)c(O)c1	inconclusive: 35.5 µM [activator, single point]	
CN(C)CCNC(=S)NC1CCCCC1		inactive: -7.16% [at 9.22 µM]
Cc1ccccc1NCc1ccc(O)c2ncccc12	inconclusive: 35.5 µM [inhibitor, single point]	
Cn1c(SCC(=O)c2ccc(F)cc2)nnc1-c1ccccc1N	inconclusive: 10 µM [activator, partial curve]	
Cc1ccc(O)c(NC(=O)CSc2ccc(Cl)cc2)c1	inconclusive: 3.55 µM [activator, partial curve]	

Looked up above:
Value for O=C(COC(=O)CCCOc1ccc(Cl)cc1Cl)NCc1ccccc1 under Potency: inactive
Value for CCN(CC)Cc1csc(C(N)=O)c1 under Potency: inconclusive: 2.24 µM [inhibitor, single point]
Value for Cc1cccc(NC(=O)CCc2ccccc2)c1 under Potency: inactive
Value for CNC(=O)CSCCn1c(SCC(=O)NC)nc2ccccc2c1=O under Potency: inconclusive: 3.16 µM [activator, single point]
